According to the supplement of paper PMC4604168 (melanoma cell lines):
This is one part of the list. Single values are uncertain, as repeats are few or missing.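 The apoptosis fraction was the count of cleaved-PARP antibody-stained nuclei relative to all DNA-stained nuclei, imaged in 1,536-well plates. Screening doses were set so most cells survived, and baseline and induced cleaved-PARP levels vary greatly across cell lines.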

Each molecule was assayed on UACC62 (assay: cleaved PARP positive nuclei fraction relative to DMSO control; melanoma cells; higher = more apoptosis). Conditions: library dose: low library concentration; 72 h.

| Structure (SMILES) | cleaved PARP positive nuclei fraction |
| --- | --- |
| N#CC[C@H](C1CCCC1)n1cc(-c2ncnc3[nH]ccc23)cn1 [ruxolitinib] + CCN(CC)CCNC(=O)c1c(C)[nH]c(/C=C2\C(=O)Nc3ccc(F)cc32)c1C [sunitinib] (first compound 1 µM, partner dose 0.4 µM) | 9.71% |
| COc1cc([C@@H]2c3cc4c(cc3[C@@H](O[C@@H]3O[C@@H]5CO[C@@H](C)O[C@H]5[C@H](O)[C@H]3O)[C@H]3COC(=O)[C@H]23)OCO4)cc(OC)c1O [etoposide] + O=C(/C=C/c1cccnc1)NCCCCC1CCN(C(=O)c2ccccc2)CC1 [FK866] (first compound 0.02 µM, partner dose 0.01 µM) | 73% |
| O=c1[nH]nc(Sc2ncc([N+](=O)[O-])s2)n1-c1ccc2c(c1)OCCO2 + CC(=O)O[C@@]12CO[C@@H]1C[C@H](O)[C@@]1(C)C(=O)[C@H](O)C3=C(C)[C@@H](OC(=O)[C@H](O)[C@@H](NC(=O)OC(C)(C)C)c4ccccc4)C[C@@](O)([C@@H](OC(=O)c4ccccc4)[C@H]21)C3(C)C [Docetaxel] (first compound 0.2 µM, partner dose 0.0001 µM) | 528% |
| N#CC[C@H](C1CCCC1)n1cc(-c2ncnc3[nH]ccc23)cn1 [ruxolitinib] + NC(=O)c1ccc(N(C(N)=O)c2c(F)cccc2F)nc1-c1ccc(F)cc1F [VX702] (first compound 1 µM, partner dose 0.4 µM) | 36.3% |
| N#CC[C@H](C1CCCC1)n1cc(-c2ncnc3[nH]ccc23)cn1 [ruxolitinib] + Cn1sc(=O)n(Cc2ccccc2)c1=O [TDZD-8] (first compound 1 µM, partner dose 0.4 µM) | 75.4% |
| CC[C@]1(O)C[C@H]2CN(CCc3c([nH]c4ccccc34)[C@@](C(=O)OC)(c3cc4c(cc3OC)N(C=O)[C@H]3[C@@](O)(C(=O)OC)[C@H](OC(C)=O)[C@]5(CC)C=CCN6CC[C@]43[C@@H]65)C2)C1 [vincristine] + C[C@@H](Oc1cc(-c2cnn(C3CCNCC3)c2)cnc1N)c1c(Cl)ccc(F)c1Cl [Crizotinib] (first compound 0.0001 µM, partner dose 0.2 µM) | 72.9% |
| O=c1[nH]nc(Sc2ncc([N+](=O)[O-])s2)n1-c1ccc2c(c1)OCCO2 + CN(c1ncccc1CNc1nc(Nc2ccc3c(c2)CC(=O)N3)ncc1C(F)(F)F)S(C)(=O)=O [PF562271] (first compound 0.2 µM, partner dose 0.08 µM) | 119% |
| O=C(Nc1cc(C(F)(F)F)cc(C(F)(F)F)c1)c1cc(Cl)ccc1O + Nc1ccn([C@@H]2O[C@H](CO)[C@@H](O)C2(F)F)c(=O)n1 [gemcitabine] (first compound 0.016 µM, partner dose 0.0004 µM) | 40.3% |
| COc1cc([C@@H]2c3cc4c(cc3[C@@H](O[C@@H]3O[C@@H]5CO[C@@H](C)O[C@H]5[C@H](O)[C@H]3O)[C@H]3COC(=O)[C@H]23)OCO4)cc(OC)c1O [etoposide] + CCCS(=O)(=O)Nc1ccc(F)c(C(=O)c2c[nH]c3ncc(Cl)cc23)c1F [PLX4720] (first compound 0.02 µM, partner dose 0.08 µM) | 33.3% |
| CC[C@]1(O)C[C@H]2CN(CCc3c([nH]c4ccccc34)[C@@](C(=O)OC)(c3cc4c(cc3OC)N(C=O)[C@H]3[C@@](O)(C(=O)OC)[C@H](OC(C)=O)[C@]5(CC)C=CCN6CC[C@]43[C@@H]65)C2)C1 [vincristine] + Cn1c(=O)n(-c2ccc(C(C)(C)C#N)cc2)c2c3cc(-c4cnc5ccccc5c4)ccc3ncc21 [NVP-BEZ235] (first compound 0.0001 µM, partner dose 0.004 µM) | 247% |
| COc1cc([C@@H]2c3cc4c(cc3[C@@H](O[C@@H]3O[C@@H]5CO[C@@H](C)O[C@H]5[C@H](O)[C@H]3O)[C@H]3COC(=O)[C@H]23)OCO4)cc(OC)c1O [etoposide] + CN(c1ncccc1CNc1nc(Nc2ccc3c(c2)CC(=O)N3)ncc1C(F)(F)F)S(C)(=O)=O [PF562271] (first compound 0.02 µM, partner dose 0.08 µM) | 59.5% |
| Cc1cc(Nc2cc(N3CCN(C)CC3)nc(Sc3ccc(NC(=O)C4CC4)cc3)n2)n[nH]1 [Tozasertib] + Cc1cc(Nc2cc(N3CCN(C)CC3)nc(/C=C/c3ccccc3)n2)n[nH]1 [ENMD2076] (first compound 0.006 µM, partner dose 0.04 µM) | 129% |
| O=C(Nc1cc(C(F)(F)F)cc(C(F)(F)F)c1)c1cc(Cl)ccc1O + C[C@]1(c2nc3c(C(N)=O)cccc3[nH]2)CCCN1 [Veliparib] (first compound 0.016 µM, partner dose 1.4 µM) | 192% |
| O=C(Nc1cc(C(F)(F)F)cc(C(F)(F)F)c1)c1cc(Cl)ccc1O + Nc1ncn([C@H]2C[C@H](O)[C@@H](CO)O2)c(=O)n1 [decitabine] (first compound 0.016 µM, partner dose 0.1 µM) | 175% |
| CC[C@]1(O)C[C@H]2CN(CCc3c([nH]c4ccccc34)[C@@](C(=O)OC)(c3cc4c(cc3OC)N(C=O)[C@H]3[C@@](O)(C(=O)OC)[C@H](OC(C)=O)[C@]5(CC)C=CCN6CC[C@]43[C@@H]65)C2)C1 [vincristine] + Cn1c(Nc2ccc(C(F)(F)F)cc2)nc2cc(Oc3ccnc(-c4ncc(C(F)(F)F)[nH]4)c3)ccc21 [CHIR265] (first compound 0.0001 µM, partner dose 0.08 µM) | 690% |
| Cc1cc(Nc2cc(N3CCN(C)CC3)nc(Sc3ccc(NC(=O)C4CC4)cc3)n2)n[nH]1 [Tozasertib] + N#CC[C@H](C1CCCC1)n1cc(-c2ncnc3[nH]ccc23)cn1 [ruxolitinib] (first compound 0.006 µM, partner dose 1 µM) | 75.8% |
| CC[C@]1(O)C[C@H]2CN(CCc3c([nH]c4ccccc34)[C@@](C(=O)OC)(c3cc4c(cc3OC)N(C=O)[C@H]3[C@@](O)(C(=O)OC)[C@H](OC(C)=O)[C@]5(CC)C=CCN6CC[C@]43[C@@H]65)C2)C1 [vincristine] + C=C(c1ccc(C(=O)O)cc1)c1cc2c(cc1C)C(C)(C)CCC2(C)C [Bexarotene] (first compound 0.0001 µM, partner dose 2 µM) | 51.3% |
| O=C(/C=C/c1cccnc1)NCCCCC1CCN(C(=O)c2ccccc2)CC1 + C#Cc1cccc(Nc2ncnc3cc(OCCOC)c(OCCOC)cc23)c1 [erlotinib] (first compound 0.01 µM, partner dose 0.8 µM) | 226% |
| Cc1cn(-c2cc(NC(=O)c3ccc(C)c(Nc4nccc(-c5cccnc5)n4)c3)cc(C(F)(F)F)c2)cn1 [nilotinib] + CO[C@H]1C[C@@H]2CC[C@@H](C)[C@@](O)(O2)C(=O)C(=O)N2CCCC[C@H]2C(=O)O[C@H]([C@H](C)C[C@@H]2CC[C@@H](OCCO)[C@H](OC)C2)CC(=O)[C@H](C)/C=C(\C)[C@@H](O)[C@@H](OC)C(=O)[C@H](C)C[C@H](C)/C=C/C=C/C=C/1C [everolimus] (first compound 0.2 µM, partner dose 0.02 µM) | 343% |
| O=C(Nc1cc(C(F)(F)F)cc(C(F)(F)F)c1)c1cc(Cl)ccc1O + Cn1c(Nc2ccc(C(F)(F)F)cc2)nc2cc(Oc3ccnc(-c4ncc(C(F)(F)F)[nH]4)c3)ccc21 [CHIR265] (first compound 0.016 µM, partner dose 0.08 µM) | 107% |
| O=c1[nH]nc(Sc2ncc([N+](=O)[O-])s2)n1-c1ccc2c(c1)OCCO2 + OCc1c[nH]c2ccccc12 [Indole-3-carbinol] (first compound 0.2 µM, partner dose 0.8 µM) | 76.6% |
| O=C(/C=C/c1cccnc1)NCCCCC1CCN(C(=O)c2ccccc2)CC1 + CO[C@H]1C[C@@H]2CC[C@@H](C)[C@@](O)(O2)C(=O)C(=O)N2CCCC[C@H]2C(=O)O[C@H]([C@H](C)C[C@@H]2CC[C@@H](OCCO)[C@H](OC)C2)CC(=O)[C@H](C)/C=C(\C)[C@@H](O)[C@@H](OC)C(=O)[C@H](C)C[C@H](C)/C=C/C=C/C=C/1C [everolimus] (first compound 0.01 µM, partner dose 0.02 µM) | 252% |
| O=c1[nH]nc(Sc2ncc([N+](=O)[O-])s2)n1-c1ccc2c(c1)OCCO2 + CS(=O)(=O)CCNCc1ccc(-c2ccc3ncnc(Nc4ccc(OCc5cccc(F)c5)c(Cl)c4)c3c2)o1 [lapatinib] (first compound 0.2 µM, partner dose 0.8 µM) | 65.1% |
| COc1cc([C@@H]2c3cc4c(cc3[C@@H](O[C@@H]3O[C@@H]5CO[C@@H](C)O[C@H]5[C@H](O)[C@H]3O)[C@H]3COC(=O)[C@H]23)OCO4)cc(OC)c1O [etoposide] + CO[C@H]1C[C@@H]2CC[C@@H](C)[C@@](O)(O2)C(=O)C(=O)N2CCCC[C@H]2C(=O)O[C@H]([C@H](C)C[C@@H]2CC[C@@H](OCCO)[C@H](OC)C2)CC(=O)[C@H](C)/C=C(\C)[C@@H](O)[C@@H](OC)C(=O)[C@H](C)C[C@H](C)/C=C/C=C/C=C/1C [everolimus] (first compound 0.02 µM, partner dose 0.02 µM) | 294% |
| Cc1cn(-c2cc(NC(=O)c3ccc(C)c(Nc4nccc(-c5cccnc5)n4)c3)cc(C(F)(F)F)c2)cn1 [nilotinib] + Nc1cccc2c1CN(C1CCC(=O)NC1=O)C2=O [lenalidomide] (first compound 0.2 µM, partner dose 1 µM) | 95.3% |
| Cc1ccc(Nc2nccc(N(C)c3ccc4c(C)n(C)nc4c3)n2)cc1S(N)(=O)=O [Pazopanib] + CNC(=O)c1cc(Oc2ccc(NC(=O)Nc3ccc(Cl)c(C(F)(F)F)c3)cc2)ccn1 [sorafenib] (first compound 0.4 µM, partner dose 0.4 µM) | 195% |
| O=c1[nH]nc(Sc2ncc([N+](=O)[O-])s2)n1-c1ccc2c(c1)OCCO2 + CS(=O)(=O)c1ccc(C(=O)Nc2ccc(Cl)c(-c3ccccn3)c2)c(Cl)c1 [vismodegib] (first compound 0.2 µM, partner dose 1 µM) | 188% |

In another format: entries from further up
Structure (SMILES),cleaved PARP positive nuclei fraction
"O=C(Nc1cc(C(F)(F)F)cc(C(F)(F)F)c1)c1cc(Cl)ccc1O + Nc1ccn([C@@H]2O[C@H](CO)[C@@H](O)C2(F)F)c(=O)n1 [gemcitabine] (first compound 0.016 µM, partner dose 0.0004 µM)",40.3%
"Cc1cn(-c2cc(NC(=O)c3ccc(C)c(Nc4nccc(-c5cccnc5)n4)c3)cc(C(F)(F)F)c2)cn1 [nilotinib] + CO[C@H]1C[C@@H]2CC[C@@H](C)[C@@](O)(O2)C(=O)C(=O)N2CCCC[C@H]2C(=O)O[C@H]([C@H](C)C[C@@H]2CC[C@@H](OCCO)[C@H](OC)C2)CC(=O)[C@H](C)/C=C(\C)[C@@H](O)[C@@H](OC)C(=O)[C@H](C)C[C@H](C)/C=C/C=C/C=C/1C [everolimus] (first compound 0.2 µM, partner dose 0.02 µM)",343%
